Taken from: PubChem BioAssay AID1508588 (Peter MacCallum Cancer Centre, 2020)
Shown is an unselected part of about 18,000 reagents tested. 790 of all reagents (4.4%) were called active. 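Calls rest on a combination of fold-change classes in drug and vehicle arms, not all shown here.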 Some reagents were tested in more than one well and are listed for each. Reagent sequences are not shown.

Purpose: 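Genome-wide search for knock-downs that heighten vemurafenib action in melanoma cells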 (primary screen)
Cells: human WM266.4 melanoma cells (BRAF V600 mutant)
Reagents: siRNA pool against human genes, 40 nM
Duration: 96 h from transfection to read-out
Treatment: vemurafenib 300 nM (about IC25), added 48 h after transfection, for 48 h; comparison arm got DMSO vehicle only
Measured: 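Cell gain (DAPI nuclei at end minus before drug, mean of two replicates) and medium lactate by absorbance per cell, both as ratio to non-targeting siRNA, also grouped into fold-change classes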
Reading the numbers: cell gain with vemurafenib: higher = more cell gain than with non-targeting siRNA; lactate per cell with vemurafenib: higher = more lactate made per cell
Rule for the call: 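a knock-down counts as enhancing when its fold-change classes with vehicle and with vemurafenib, taken together, show a stronger drug effect on cell gain or lactate per cell; exact class pairs not stated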
Calls: active = enhances vemurafenib effect; inactive = no enhancement seen

gene	cell gain with vemurafenib	lactate per cell with vemurafenib	outcome
OR8J3	0.37	1.28	inactive
H3-3A	0.87	0.26	inactive
ANKFY1	0.35	0.96	inactive
SLCO2A1	0.38	0.78	inactive
CTNNBIP1	0.82	0.9	inactive
GDNF	0.6	1.34	inactive
CIMIP7	0.82	0.65	inactive
MSTN	0.63	1.4	inactive
APOBEC2	0.69	0.86	inactive
FTH1	0.95	1.19	inactive
OR51A2	0.73	1.09	inactive
JAGN1	0.68	0.43	inactive
FAM3A	0.55	1.19	inactive
LOC402715	0.79	0.88	inactive
LANCL1	0.43	1.23	inactive
ZDHHC19	0.67	0.94	inactive
ZBTB3	0.54	0.62	inactive
TRPM7	0.63	0.54	inactive
TRPM7	0.49	0.96	inactive
FYN	0.81	0.94	inactive
MIF4GD	0.65	1.23	inactive
MAP1LC3B	0.2	1.35	inactive
RIPK3	0.66	0.76	inactive
DRAM2	0.09	3.09	inactive
ZBED3	0.84	0.73	inactive
PAGE5	1.12	1.66	inactive
RSPH10B	0.36	1.09	inactive
PTGES2	1.52	1.24	inactive
HBE1	0.68	0.86	inactive
RBM17	0.43	0.53	inactive
TRAF2	0.32	0.76	inactive
TRIM21	0.62	1.09	inactive
PYROXD2	0.18	0.48	active
MBP	0.5	1.27	inactive
DHTKD1	0.63	0.79	inactive
HDGFL1	0.79	0.99	inactive
TM7SF3	0.54	1.23	inactive
ANKLE1	0.31	0.6	inactive
NUF2	0.01	1.33	inactive
TSLIG2	0.55	0.98	inactive
CD46	0.65	0.56	inactive
FBN3	0.46	0.57	inactive
LGALSL	0.47	1.4	inactive
ZBTB7A	1.04	0.54	inactive
EMILIN1	0.25	1.13	inactive
MYBPH	0.72	1.01	inactive
GPR18	0.82	1.18	inactive
IRX4	0.52	0.96	inactive
STK38	0.58	0.52	active
EIF4EBP3	0.43	0.78	inactive
TEX14	0.2	1.46	inactive
CMIP	-0.06	1.48	inactive
TBC1D28	0.13	0.88	inactive
GPLD1	0.71	0.73	inactive
VPS13C	0.68	0.7	inactive
TMEM255A	0.59	1.48	inactive
MACIR	0.67	2.01	inactive

Active calls, among the entries above:
gene	cell gain with vemurafenib	lactate per cell with vemurafenib	outcome
PYROXD2	0.18	0.48	active
STK38	0.58	0.52	active
